The subject of this assay is CD2F1 mice, L1210 leukemia sc, survival T/C. The assay is described as follows: NCI In Vivo Anticancer Drug Screen. Data for tumor model L1210 Leukemia (subcutaneous) in CD2F1 (CDF1) mice. Conditions: T/C endpoint: median survival time, higher T/C = longer survival. The procedure, abridged:
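Compound given to mice bearing transplantable tumor. Survival or tumor size then recorded. Result expressed relative to vehicle-dosed control group as T/C.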

Where [1] appears, read: dose: 12.0 mg/kg/injection, schedule: Q01DX009 (sc), vehicle: saline.
The mark [2] stands for this setting: dose: 267.0 mg/kg/injection, schedule: Q01DX005 (ip), vehicle: other.
The mark [3] stands for this setting: dose: 0.4 mg/kg/injection, schedule: Q01DX009 (sc), vehicle: saline.
[4] abbreviates: dose: 1.6 mg/kg/injection, schedule: Q01DX009 (sc), vehicle: saline.

The list does not hold the whole screen: it gathers tests that were run many times, whatever their T/C, doses with no T/C, and many T/C values between a quarter and a half above the control. Further doses and runs are listed elsewhere. T/C gives the treated animals as a percentage of the vehicle group. Some doses have a count of surviving animals in place of a T/C: the source holds a T/C of zero for them, seemingly a mark for toxic or unscored doses. Some survivor counts are full or nearly so, which does not show that the dose was tolerated: survival well below the control is almost never listed, so the zero probably covers shortened survival too. Counts of survivors are from the toxicity check (mostly the fifth day) where no day follows; animals may have died later. Schedule codes are those of the source, taken here to give the interval after Q, in days (D) or hours (H), and the number of doses after X. Some doses were run more than once; the values are given in rising order. Some schedule codes hold Z or #, which are not explained here. Where survival is the endpoint, this PubChem deposit counts one and a half times the control or more as active, and values a quarter to a half above the control carry no call in these data; other NCI protocols may use other cut-offs. Some T/C values carry the count of animals alive at the toxicity check (mostly the fifth day); without a count, all were alive then.

This is an account of results in PubChem BioAssay AID258 (DTP/NCI, 2004).

On to `N[C@@H](Cc1ccc(N(CCCl)CCCl)cc1)C(=O)O`, for which the T/C runs as follows: (dose: 2.0 mg/kg/injection, schedule: Q01DX009 (ip), vehicle: suspension in saline) 142 % of control; (dose: 2.5 mg/kg/injection, schedule: Q01DX009 (ip), vehicle: saline, evaluated on day 30) 139 % of control; (dose: 2.5 mg/kg/injection, schedule: Q01DX009 (ip), vehicle: saline, evaluated on day 45) 135 % of control; (dose: 2.5 mg/kg/injection, schedule: Q01DX009 (sc), vehicle: saline, evaluated on day 30) 144 % of control; (dose: 2.5 mg/kg/injection, schedule: Q01DX009 (sc), vehicle: saline, evaluated on day 45) 131 % of control; (dose: 3.33 mg/kg/injection, schedule: Q01DX009 (ip), vehicle: saline) 143 % of control. Moreover, the T/C (dose: 3.33 mg/kg/injection, schedule: Q01DX009 (sc), vehicle: saline) was 145 % of control; the T/C (dose: 4.0 mg/kg/injection, schedule: Q01DX009 (sc), vehicle: saline with Tween-80) was 130 % of control; the T/C (dose: 5.0 mg/kg/injection, schedule: Q01DX009 (ip), vehicle: saline, evaluated on day 30) was 128 [9 of 10 alive], 168, 170 % of control; the T/C (dose: 5.0 mg/kg/injection, schedule: Q01DX009 (ip), vehicle: saline, evaluated on day 40) is 146 % of control [8 of 10 alive]; the T/C (dose: 5.3 mg/kg/injection, schedule: Q01DX009 (sc), vehicle: saline) is 142 % of control; the T/C (dose: 7.5 mg/kg/injection, schedule: Q01DX009 (ip), vehicle: saline) was 131 % of control. Besides, the T/C is 137 % of control (dose: 8.0 mg/kg/injection, schedule: Q01DX009 (sc), vehicle: saline with Tween-80) and 129 % of control under setting [1]. The survivor count reads like this: under setting [1], 8 of 10; (dose: 18.0 mg/kg/injection, schedule: Q01DX009 (sc), vehicle: saline) 9 of 10; (dose: 32.0 mg/kg/injection, schedule: Q01DX009 (sc), vehicle: saline with Tween-80) 7 of 10; (dose: 64.0 mg/kg/injection, schedule: Q01DX009 (sc), vehicle: saline with Tween-80) 9 of 10; (dose: 128.0 mg/kg/injection, schedule: Q01DX009 (sc), vehicle: saline with Tween-80) 1 of 10 and 3 of 10; (dose: 256.0 mg/kg/injection, schedule: Q01DX009 (sc), vehicle: saline with Tween-80) 0 of 10.
Turning to `CCOC(=O)c1c[nH]c2oc(/C=N/N3CC(CN4CCOCC4)OC3=O)cc2c1=O` (stereo not drawn), the T/C reads like this: (dose: 100.0 mg/kg/injection, schedule: Q01DX009 (ip), vehicle: other) 136 % of control; (dose: 178.0 mg/kg/injection, schedule: Q01DX005 (ip), vehicle: other) 133 % of control [9 of 10 alive]; (dose: 200.0 mg/kg/injection, schedule: Q01DX009 (ip), vehicle: other) 148 % of control; under setting [2], 138 % of control; (dose: 400.0 mg/kg/injection, schedule: Q01DX009 (ip), vehicle: other) 136 % of control [5 of 6 alive]. Besides, the survivor count under setting [2] is 2 of 10; the survivor count (dose: 400.0 mg/kg/injection, schedule: Q01DX005 (ip), vehicle: other) is 7 of 10; the survivor count (dose: 600.0 mg/kg/injection, schedule: Q01DX005 (ip), vehicle: other) is given as 0 of 10; the survivor count (dose: 800.0 mg/kg/injection, schedule: Q01DX009 (ip), vehicle: other) is on record as 5 of 6.
For the compound `C1CN1c1nc(N2CC2)nc(N2CC2)n1`, the survivor count is listed as 3 of 10 (dose: 0.1 mg/kg/injection, schedule: Q01DX009 (sc), vehicle: saline); 4 of 10 (dose: 0.2 mg/kg/injection, schedule: Q01DX009 (sc), vehicle: saline); 6 of 10 under setting [3]; 10 of 10 (dose: 1.6 mg/kg/injection, schedule: Q01DX009 (ip), vehicle: saline); 10 of 10 under setting [4]; 5 of 10 (dose: 3.2 mg/kg/injection, schedule: Q01DX009 (sc), vehicle: saline). The T/C was 131 % of control (dose: 0.3 mg/kg/injection, schedule: Q01DX009 (ip), vehicle: saline); 139 % of control (dose: 0.3 mg/kg/injection, schedule: Q01DX009 (sc), vehicle: saline); 126 % of control (dose: 0.4 mg/kg/injection, schedule: Q01DX009 (ip), vehicle: saline); 134 and 149 % of control under setting [3]; 141 % of control (dose: 0.53 mg/kg/injection, schedule: Q01DX009 (sc), vehicle: saline); 143 % of control (dose: 0.6 mg/kg/injection, schedule: Q01DX009 (ip), vehicle: saline). Further, the T/C (dose: 0.6 mg/kg/injection, schedule: Q01DX009 (sc), vehicle: saline) was 148 % of control; the T/C (dose: 0.75 mg/kg/injection, schedule: Q01DX009 (ip), vehicle: saline) was 137 % of control; the T/C (dose: 0.75 mg/kg/injection, schedule: Q01DX009 (sc), vehicle: saline) was 143 % of control; the T/C (dose: 0.8 mg/kg/injection, schedule: Q01DX009 (sc), vehicle: saline) was 145 % of control; the T/C (dose: 1.2 mg/kg/injection, schedule: Q01DX009 (sc), vehicle: saline) was 135 % of control; the T/C under setting [4] is 125 % of control.
With `Nc1n[nH]c2ccccc12`, for the setting “dose: 200.0 mg/kg/injection, schedule: Q01DX009 (ip), vehicle: acid diluted with saline”, the T/C was 149 % of control. The survivor count (dose: 400.0 mg/kg/injection, schedule: Q01DX005 (ip), vehicle: acid diluted with saline) is 0 of 10 and the survivor count (dose: 400.0 mg/kg/injection, schedule: Q01DX009 (ip), vehicle: acid diluted with saline) was 4 of 5.
Turning to `NS(=O)(=O)OCCCCCCCOS(N)(=O)=O`, the survivor count (dose: 18.0 mg/kg/injection, schedule: Q01DX009 (ip), vehicle: saline with Tween-80) was 6 of 6. Also, under “dose: 50.0 mg/kg/injection, schedule: Q01DX009 (ip), vehicle: saline with Tween-80”, the T/C was 143 % of control.
Take `Cc1ccc(NCCN(C)C)c2c(=O)c3cc(O)ccc3sc12`: the T/C (dose: 50.0 mg/kg/injection, schedule: Q01DX009 (ip), vehicle: Klucel (hydroxypropylcellulose) (HPC)) is 141 % of control. Also, the survivor count (dose: 200.0 mg/kg/injection, schedule: Q01DX009 (ip), vehicle: Klucel (hydroxypropylcellulose) (HPC)) was 2 of 6 and 4 of 6.
In the case of `CCCCn1cnc2c(=S)nc[nH]c21`, the survivor count by setting is: (dose: 23.0 mg/kg/injection, schedule: Q01DX Z (sc), vehicle: methylcellulose (MC)) 4 of 10; (dose: 39.0 mg/kg/injection, schedule: Q01DX Z (sc), vehicle: methylcellulose (MC)) 5 of 10; (dose: 65.0 mg/kg/injection, schedule: Q01DX Z (sc), vehicle: methylcellulose (MC)) 3 of 10; (dose: 108.0 mg/kg/injection, schedule: Q01DX Z (sc), vehicle: methylcellulose (MC)) 2 of 10; (dose: 180.0 mg/kg/injection, schedule: Q01DX Z (sc), vehicle: methylcellulose (MC)) 3 of 10; (dose: 300.0 mg/kg/injection, schedule: Q01DX Z (sc), vehicle: methylcellulose (MC)) 3 of 10. Besides, where the note is “dose: 500.0 mg/kg/injection, schedule: Q01DX Z (sc), vehicle: methylcellulose (MC)”, the survivor count is recorded as 4 of 10.
As for `ONc1nc(NO)c2[nH]cnc2n1`, for the setting “dose: 16.0 mg/kg/injection, schedule: Q01DX Z (sc), vehicle: steroid suspending solution”, the T/C was 125 % of control.
Take `CO[C@@]12[C@H](COC(N)=O)C3=C(C(=O)C(C)=C(N)C3=O)N1C[C@@H]1N[C@@H]12`: the T/C (dose: 5.42 mg/kg/injection, schedule: Q01DX Z (sc), vehicle: saline) was 129 % of control.
